# Experimental data published in PubChem BioAssay (EPA / NIEHS).
# Amino acid sequences for entries named in this document (tags omitted). A change or cut given only in a name is not applied to a line headed by its entry.
# UniProt P13631, whole entry, looked up: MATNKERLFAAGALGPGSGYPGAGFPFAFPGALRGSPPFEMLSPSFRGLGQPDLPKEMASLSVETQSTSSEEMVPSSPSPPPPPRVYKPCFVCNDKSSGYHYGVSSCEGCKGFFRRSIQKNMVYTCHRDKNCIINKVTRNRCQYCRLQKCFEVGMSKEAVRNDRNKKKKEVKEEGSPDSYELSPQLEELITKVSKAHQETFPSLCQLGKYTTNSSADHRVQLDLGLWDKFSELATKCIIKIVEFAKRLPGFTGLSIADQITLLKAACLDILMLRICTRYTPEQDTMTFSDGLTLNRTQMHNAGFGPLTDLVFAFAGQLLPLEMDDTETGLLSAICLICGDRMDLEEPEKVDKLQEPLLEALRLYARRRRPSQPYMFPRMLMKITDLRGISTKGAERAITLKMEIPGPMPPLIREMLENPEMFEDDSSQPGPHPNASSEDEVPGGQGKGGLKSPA
# UniProt Q92753: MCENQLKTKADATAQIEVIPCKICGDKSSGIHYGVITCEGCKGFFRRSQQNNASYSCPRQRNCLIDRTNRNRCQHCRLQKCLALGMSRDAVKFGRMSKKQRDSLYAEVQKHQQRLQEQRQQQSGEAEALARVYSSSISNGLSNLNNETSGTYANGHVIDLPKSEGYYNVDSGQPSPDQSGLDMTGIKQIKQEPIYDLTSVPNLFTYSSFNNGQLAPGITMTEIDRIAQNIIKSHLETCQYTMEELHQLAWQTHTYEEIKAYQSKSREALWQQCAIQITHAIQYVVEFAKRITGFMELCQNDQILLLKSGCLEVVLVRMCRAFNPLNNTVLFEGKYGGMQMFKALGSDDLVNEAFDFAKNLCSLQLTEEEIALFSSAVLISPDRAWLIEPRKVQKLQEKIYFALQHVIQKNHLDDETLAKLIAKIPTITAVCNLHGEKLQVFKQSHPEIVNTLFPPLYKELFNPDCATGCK
# UniProt P51449: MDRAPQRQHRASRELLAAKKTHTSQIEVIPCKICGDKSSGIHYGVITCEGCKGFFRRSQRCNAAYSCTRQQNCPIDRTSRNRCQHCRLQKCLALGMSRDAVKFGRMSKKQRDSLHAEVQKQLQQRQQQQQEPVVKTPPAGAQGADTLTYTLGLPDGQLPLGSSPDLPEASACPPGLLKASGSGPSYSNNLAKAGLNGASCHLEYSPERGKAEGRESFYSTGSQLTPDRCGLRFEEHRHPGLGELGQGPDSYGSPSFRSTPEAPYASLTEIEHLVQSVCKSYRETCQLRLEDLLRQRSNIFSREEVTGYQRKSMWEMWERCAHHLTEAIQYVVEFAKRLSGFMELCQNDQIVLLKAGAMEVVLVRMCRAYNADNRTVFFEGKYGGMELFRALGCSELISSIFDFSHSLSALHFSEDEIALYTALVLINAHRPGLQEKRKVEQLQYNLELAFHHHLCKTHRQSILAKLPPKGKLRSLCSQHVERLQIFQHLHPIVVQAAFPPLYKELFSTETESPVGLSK
# UniProt P19793: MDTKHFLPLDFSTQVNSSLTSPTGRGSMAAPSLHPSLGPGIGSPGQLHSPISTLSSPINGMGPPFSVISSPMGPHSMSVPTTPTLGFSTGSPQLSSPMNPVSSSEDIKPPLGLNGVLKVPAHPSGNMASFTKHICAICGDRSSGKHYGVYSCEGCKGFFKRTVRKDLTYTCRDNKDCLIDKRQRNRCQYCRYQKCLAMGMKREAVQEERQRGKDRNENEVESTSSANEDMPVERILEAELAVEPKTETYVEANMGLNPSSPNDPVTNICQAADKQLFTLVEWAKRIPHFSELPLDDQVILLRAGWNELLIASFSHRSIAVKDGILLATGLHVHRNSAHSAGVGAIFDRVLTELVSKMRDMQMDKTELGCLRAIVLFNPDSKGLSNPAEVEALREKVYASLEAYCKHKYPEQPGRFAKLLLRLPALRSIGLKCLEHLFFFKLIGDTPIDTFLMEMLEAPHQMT
# UniProt P28702: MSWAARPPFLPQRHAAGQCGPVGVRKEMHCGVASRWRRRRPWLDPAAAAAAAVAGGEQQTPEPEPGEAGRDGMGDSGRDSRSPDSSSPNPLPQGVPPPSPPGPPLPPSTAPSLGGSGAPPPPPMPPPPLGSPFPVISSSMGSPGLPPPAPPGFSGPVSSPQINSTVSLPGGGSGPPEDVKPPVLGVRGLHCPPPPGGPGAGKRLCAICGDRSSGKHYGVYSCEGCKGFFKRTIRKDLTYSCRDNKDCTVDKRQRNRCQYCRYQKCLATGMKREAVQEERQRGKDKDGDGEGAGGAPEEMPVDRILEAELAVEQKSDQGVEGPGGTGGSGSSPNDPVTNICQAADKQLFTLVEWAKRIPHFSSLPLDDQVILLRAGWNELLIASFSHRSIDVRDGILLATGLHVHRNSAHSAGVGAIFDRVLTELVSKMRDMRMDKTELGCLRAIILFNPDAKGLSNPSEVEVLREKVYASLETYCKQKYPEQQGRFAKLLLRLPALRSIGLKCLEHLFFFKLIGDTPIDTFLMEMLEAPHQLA
# UniProt P10827: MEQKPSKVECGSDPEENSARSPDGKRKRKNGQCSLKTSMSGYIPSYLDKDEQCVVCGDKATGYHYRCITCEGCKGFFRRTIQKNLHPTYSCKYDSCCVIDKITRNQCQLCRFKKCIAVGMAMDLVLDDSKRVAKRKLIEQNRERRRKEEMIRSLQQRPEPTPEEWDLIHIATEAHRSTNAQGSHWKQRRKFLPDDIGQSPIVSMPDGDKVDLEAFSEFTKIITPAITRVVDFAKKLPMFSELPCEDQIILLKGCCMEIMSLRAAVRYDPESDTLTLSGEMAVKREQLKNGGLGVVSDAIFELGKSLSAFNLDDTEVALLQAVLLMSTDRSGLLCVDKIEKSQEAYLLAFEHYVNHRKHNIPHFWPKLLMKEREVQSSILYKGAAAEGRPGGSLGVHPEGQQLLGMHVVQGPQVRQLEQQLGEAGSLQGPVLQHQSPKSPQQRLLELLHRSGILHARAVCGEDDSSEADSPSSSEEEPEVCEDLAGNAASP
# UniProt P11473: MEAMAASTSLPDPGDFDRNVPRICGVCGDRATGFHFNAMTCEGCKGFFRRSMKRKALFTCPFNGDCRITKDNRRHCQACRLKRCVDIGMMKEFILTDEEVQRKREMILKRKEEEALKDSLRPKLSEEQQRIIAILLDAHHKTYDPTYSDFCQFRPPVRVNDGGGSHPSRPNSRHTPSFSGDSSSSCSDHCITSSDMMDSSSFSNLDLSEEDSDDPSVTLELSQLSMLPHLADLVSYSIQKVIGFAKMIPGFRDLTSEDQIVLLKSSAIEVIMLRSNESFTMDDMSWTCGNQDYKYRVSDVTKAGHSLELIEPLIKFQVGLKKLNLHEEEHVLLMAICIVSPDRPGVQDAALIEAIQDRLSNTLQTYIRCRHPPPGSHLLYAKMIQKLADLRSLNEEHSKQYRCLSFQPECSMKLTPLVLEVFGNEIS
# This list was built around the results that the source calls inconclusive (neither active nor inactive); the mix of calls is not that of the screen. Where the call is inconclusive, the potency comes from a doubtful curve fit. Calls of active or inactive are those of the source. How the source made its calls: active means hit-call score of the fitted dose curve at least 0.9, where 1 is the maximum; inconclusive means response in the unintended direction; inactive means score below 0.9.
# Assays:
# [1] = target: human Retinoic Acid Receptor gamma (RARg), RARG (gene 5916) (UniProt P13631); assay: ATG_RARg_TRANS: Attagene TRANS-FACTORIAL HepG2 Assay for human Retinoic Acid Receptor gamma (RARg) (AID 2283009);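 on AC50: AC50 is for reporter induction above DMSO meaning RARg activation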
# Outline: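 Readout: reporter transcript levels via RT-PCR, 6-FAM primer-extension labelling, HpaI digestion and capillary electrophoresis. Cells: HepG2 carrying transfected RARg-GAL4 chimera plus UAS reporter set. Dosing 24 h; DMSO negative control.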
# [2] = target: human RAR-related Orphan Receptor beta (RORb), RORB (gene 6096) (UniProt Q92753); assay: ATG_RORb_TRANS: Attagene TRANS-FACTORIAL HepG2 Assay for human RAR-related Orphan Receptor beta (RORb) (AID 2283010);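 on AC50: potency for increased reporter mRNA meaning activation of RORb-Gal4 chimera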
# Outline: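 HepG2, transient MRTU transfection (GAL4-UAS reporters, exogenous NR-Gal4 chimeras); 24 h compound exposure; total RNA → RT-PCR → 6-FAM primer extension → HpaI digest → CE fluorescence. Positive direction vs DMSO baseline.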
# [3] = target: human RAR-related Orphan Receptor gamma (RORg), RORC (gene 6097) (UniProt P51449); assay: ATG_RORg_TRANS: Attagene TRANS-FACTORIAL HepG2 Assay for human RAR-related Orphan Receptor gamma (RORg) (AID 2283011);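 on AC50: potency for induction of reporter transcripts above DMSO so activators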
# Outline: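 Chimeric RORg-Gal4 transactivation in transfected HepG2; 24 h exposure; RT-PCR/capillary electrophoresis readout of reporter mRNA, DMSO baseline.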
# [4] = target: Retinoic acid receptor RXR-alpha (Homo sapiens) (UniProt P19793); assay: ATG_RXRa_TRANS: Attagene TRANS-FACTORIAL HepG2 Assay for human Retinoid X Receptor alpha (RXRa) (AID 2283012)
# Outline: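 Read-out: fluorescent reporter-transcript fragments quantified by capillary electrophoresis after RT-PCR. Transiently transfected HepG2 cells carrying GAL4-UAS reporters and NR-GAL4 chimeras were exposed to chemical for 24 h; activity scored as increase over DMSO.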
# [5] = target: human Retinoid X Receptor beta (RXRb), RXRB (gene 6257) (UniProt P28702); assay: ATG_RXRb_TRANS: Attagene TRANS-FACTORIAL HepG2 Assay for human Retinoid X Receptor beta (RXRb) (AID 2283013)
# Outline: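 Read-out: reporter mRNA induction via RT-PCR plus capillary electrophoresis fluorescence, analysed as signal increase relative to DMSO. Cells were human HepG2, transiently transfected with GAL4-UAS reporter constructs and chimeric receptor-Gal4 fusions, dosed for 24 h.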
# [6] = target: human Thyroid Receptor alpha (THRa1), THRA (gene 7067) (UniProt P10827); assay: ATG_THRa1_TRANS: Attagene TRANS-FACTORIAL HepG2 Assay for human Thyroid Receptor alpha (THRa1) (AID 2283014)
# Outline: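 Measured here is mRNA from a GAL4-UAS reporter in transfected HepG2 cells carrying a Gal4-fused receptor, 24 h post-dose. DMSO served as negative control and baseline.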
# [7] = target: human Vitamin D Receptor (VDR), VDR (gene 7421) (UniProt P11473); assay: ATG_VDR_TRANS: Attagene TRANS-FACTORIAL HepG2 Assay for human Vitamin D Receptor (VDR) (AID 2283022)
# Outline: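 Multiplexed TRANS reporter in HepG2; 24 h treatment; reporter mRNA by RT-PCR plus capillary electrophoresis; upregulation scored relative to DMSO.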
smiles,measurement,setting,value
COc1ccc(C(=O)/C(Br)=C\C(=O)O)cc1,outcome,[1],inactive
same,AC50,[2],inconclusive: 16.2 µM
same,outcome,[3],inactive
same,outcome,[4],inactive
same,outcome,[5],inactive
FC(F)(F)C(F)(F)C(F)(F)C(F)(F)I,AC50,[1],inconclusive: 150 µM
same,AC50,[2],inconclusive: 150 µM
same,outcome,[3],inactive
same,outcome,[4],inactive
same,AC50,[5],inconclusive: 150 µM
same,AC50,[6],inconclusive: 150 µM
same,outcome,[7],inactive
C=CC(=C)CCCC(C)(C)OC(C)=O,AC50,[1],inconclusive: 100 µM
same,AC50,[2],inconclusive: 100 µM
same,outcome,[3],inactive
same,outcome,[4],inactive
same,AC50,[5],inconclusive: 182 µM
same,outcome,[6],inactive
c1ccc2cnccc2c1,AC50,[1],inconclusive: 26.1 µM
same,outcome,[2],inactive
same,AC50,[3],inconclusive: 27.4 µM
same,outcome,[4],inactive
same,AC50,[5],inconclusive: 1.19 µM
same,outcome,[6],inactive
CC1=C(/C=C/C(C)=C/C=C/C(C)=C/CO)C(C)(C)CCC1,AC50,[1],active: 0.117 µM
same,AC50,[2],inconclusive: 104 µM
same,AC50,[3],inconclusive: 0.203 µM
same,AC50,[4],active: 1.87 µM
same,AC50,[5],active: 0.474 µM
same,AC50,[6],inconclusive: 104 µM
O=c1cc[nH]c(=S)[nH]1,outcome,[1],inactive
same,AC50,[2],inconclusive: 102 µM
same,AC50,[3],inconclusive: 102 µM
same,AC50,[4],inconclusive: 102 µM
same,AC50,[5],inconclusive: 102 µM
same,outcome,[6],inactive
[Cl][Bi]([Cl])([c]1ccccc1)([c]1ccccc1)[c]1ccccc1,AC50,[1],inconclusive: 2.37 µM
same,AC50,[2],inconclusive: 5.54 µM
same,AC50,[3],inconclusive: 5.25 µM
same,AC50,[4],active: 5.6 µM
same,AC50,[5],active: 1.04 µM
Cc1c(O)cccc1O,AC50,[1],inconclusive: 181 µM
same,outcome,[2],inactive
same,AC50,[3],inconclusive: 1.84 µM
same,AC50,[4],inconclusive: 1.09 µM
same,AC50,[5],inconclusive: 102 µM
same,AC50,[6],inconclusive: 0.894 µM
same,AC50,[7],inconclusive: 102 µM
CCCCCCO,AC50,[1],inconclusive: 100 µM
same,AC50,[2],inconclusive: 100 µM
same,AC50,[3],inconclusive: 100 µM
same,AC50,[4],inconclusive: 100 µM
same,outcome,[5],inactive
same,AC50,[6],inconclusive: 100 µM
OCC(F)(F)C(F)(F)C(F)(F)C(F)(F)C(F)(F)C(F)(F)C(F)(F)C(F)(F)CO,AC50,[1],inconclusive: 150 µM
same,AC50,[2],inconclusive: 150 µM
same,AC50,[3],inconclusive: 150 µM
same,AC50,[4],inconclusive: 0.142 µM
same,AC50,[5],inconclusive: 150 µM
same,AC50,[6],inconclusive: 35.8 µM
same,outcome,[7],inactive
CC=CC(=O)N(CC)c1ccccc1C,AC50,[1],inconclusive: 181 µM
same,outcome,[2],inactive
same,outcome,[3],inactive
same,AC50,[4],inconclusive: 100 µM
same,AC50,[5],inconclusive: 180 µM
COc1cccc2c1C(=O)c1c(O)c3c(c(O)c1C2=O)C[C@@](O)(C(=O)CO)C[C@@H]3O[C@H]1C[C@H](N)[C@H](O)[C@H](C)O1,outcome,[1],inactive
same,AC50,[2],inconclusive: 1.05 µM
same,AC50,[3],inconclusive: 1.32 µM
same,outcome,[4],inactive
same,AC50,[5],active: 0.0616 µM
same,AC50,[6],active: 32.9 µM
same,outcome,[7],inactive

# At a glance, some entries already given:
smiles,measurement,setting,value
C=CC(=C)CCCC(C)(C)OC(C)=O,AC50,[1],inconclusive: 100 µM
same,AC50,[2],inconclusive: 100 µM
same,outcome,[3],inactive
